Laboratory results: PubChem BioAssay AID504784 (Drosophila RNAi Screening Center, 2011)
In all, the deposit lists about 17,000 reagents; this is a random part of those that have a named target and a result. 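Each column is one replicate's B-score; the combined score over replicates was not deposited, so single values may mislead.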

Assay: 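Search for regulators of lipid droplet storage in oleate-fed fly cells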 (primary screen)
System: Drosophila Kc167 embryonic cells
Reagents: long dsRNA against Drosophila genes, about 250 ng dsRNA per well
Timing: 4 days
Challenge: cells fed 400 µM oleic acid bound to BSA
Detection: 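Cells imaged and segmented; ratio of lipid droplet area to nuclear area, log-transformed, then normalised as a B-score over the screen; higher means more stored lipid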
Scale: droplet/nuclear area B-score: higher = more stored lipid (overstorage)

| target gene | amplicon | droplet/nuclear area B-score, replicate 1 | droplet/nuclear area B-score, replicate 2 | droplet/nuclear area B-score, replicate 3 |
| --- | --- | --- | --- | --- |
| CG15499 (retired record) | DRSC15041 | -2.03 | -0.249 | – |
| CG18528 | DRSC15340 | -0.0509 | -1.94 | – |
| CG4199 | DRSC18519 | – | -1.36 | – |
| CG4199 | DRSC21314 | -0.0289 | -0.231 | – |
| CG6051 | DRSC15956 | -0.00854 | – | – |
| CG3014 | DRSC15458 | 0.388 | -0.768 | – |
| CG4269 | DRSC04457 | 0.0708 | -1.78 | – |
| CG10175 | DRSC13628 | -0.137 | -1.33 | – |
| CG10175 | DRSC14200 | -0.0474 | -1.48 | – |
| CG10175 | DRSC21981 | -0.485 | 0.875 | – |
| CG6040 | DRSC15954 | 0.277 | -0.824 | – |
| Cyp40 | DRSC10980 | -0.347 | -1.24 | – |
| CG14818 | DRSC18548 | -0.101 | -0.961 | – |
| CG31115 | DRSC13692 | 0.0199 | 0.503 | – |
| CG14357 | DRSC14820 | -0.0341 | 0.257 | – |
| CG1628 | DRSC18109 | -0.295 | 1.25 | 0.409 |
| CG14377 | DRSC14837 | 1.24 | -0.363 | – |
| Ost48 | DRSC18693 | -0.0488 | 0.0417 | -0.0316 |
| Vps45 | DRSC16398 | -0.0924 | 0.381 | – |
| B4 | DRSC01868 | -0.105 | 0.32 | – |
| B4 | DRSC03175 | 0.294 | 0.136 | – |
| CG8519 | DRSC10985 | -0.764 | -0.482 | – |
| CG1116 | DRSC12166 | -0.823 | -1.11 | – |
| acs | DRSC08185 | -0.26 | -1.21 | – |
| Synd | DRSC15116 | 3.67 | -0.348 | – |
| Cyp305a1 | DRSC11126 | -1.67 | 0.293 | -0.0124 |
| CG3594 | DRSC04393 | 1.21 | 0.898 | – |
| CG3594 | DRSC21959 | 0.00197 | -0.46 | – |
| CG43394 | DRSC01013 | -0.916 | 0.000676 | – |
| CG3529 | DRSC10369 | 0.51 | -0.276 | – |
| CG4661 | DRSC19910 | 0.763 | 0.884 | 0.509 |
| CG32488 | DRSC08549 | 1.34 | 0.947 | – |
| CG32488 | DRSC21537 | 2.03 | -0.0814 | – |
| Stlk | DRSC22687 | 1.06 | 1.85 | – |
| CG14142 | DRSC10145 | -0.0251 | 1.01 | – |
| eIF3g1 | DRSC18427 | 2.19 | – | – |
| CG1409 | DRSC17910 | 0.497 | – | – |
| CCT5 | DRSC07357 | -1.76 | 0.00881 | – |
| CG32548 | DRSC19627 | -0.349 | 1.91 | – |
| CG32548 | DRSC19982 | -0.145 | 0.325 | – |
| PolD3 | DRSC01961 | -0.698 | -0.232 | – |
| CG42367 | DRSC21388 | 1.18 | -1.82 | – |
| GstE1 | DRSC07437 | 2.17 | 0.974 | – |
| lectin-33A | DRSC02529 | 0.556 | 0.636 | – |
| lectin-33A | DRSC22116 | 0.454 | -2.15 | – |
| ms(3)76Ba | DRSC10091 | -0.984 | 0.159 | – |
| Cyp4ad1 | DRSC07369 | -0.518 | 0.587 | – |
| RpL17 | DRSC18293 | 7.56 | 2.21 | 0.611 |
| CG13086 | DRSC02190 | 0.365 | 1.43 | – |
| SIDL | DRSC16077 | 1.28 | 0.57 | – |
| mEFTs | DRSC02953 | -1.4 | -0.125 | – |
| GXIVsPLA2 | DRSC10243 | -1.39 | -0.422 | 0.0124 |
| gce | DRSC19613 | 0.184 | 0.863 | – |
| gce | DRSC19974 | -0.795 | -2.73 | – |
| Stim | DRSC20158 | 0.553 | -0.113 | -0.928 |
| Mp | DRSC10193 | -0.0535 | -1.04 | 0.522 |
| Mp | DRSC11029 | -0.888 | 0.146 | – |
| Mp | DRSC11030 | -0.285 | 1.06 | – |
| Hmg-2 | DRSC04554 | -0.756 | -2.32 | – |
| Mst77F | DRSC11871 | -1.51 | 0.738 | – |
| CG30411 | DRSC04004 | 2.23 | 0.877 | – |
| Rtca | DRSC18517 | -0.769 | -0.688 | – |
| CG9021 | DRSC03128 | -0.361 | -2.59 | – |
| CG4887 | DRSC00670 | 0.727 | 0.532 | – |
| CG4887 | DRSC21563 | 0.0826 | 0.00581 | – |
| stac | DRSC13693 | -0.744 | -0.659 | – |
| stac | DRSC14392 | 0.24 | 0.00756 | – |
| stac | DRSC22197 | -0.621 | 0.175 | – |
| CG2258 | DRSC18222 | -0.344 | 0.894 | 0.000228 |
| CG18428 | DRSC15326 | 0.0509 | 0.116 | – |
| CG12662 | DRSC17865 | -0.953 | -0.0448 | – |
| sut3 | DRSC07702 | -0.807 | 1.27 | – |
| Nipped-B | DRSC07815 | -0.106 | -0.16 | – |
| CG14641 | DRSC12227 | -0.421 | -1.18 | 2.61 |
| CG14722 | DRSC14944 | 0.953 | -6.45 | – |
| CG11905 | DRSC09863 | 0.181 | -0.147 | -1.5 |
| CG30105 | DRSC05668 | -1.1 | -0.074 | – |
| superdeath | DRSC14868 | 1.59 | -0.252 | – |
| CG7139 | DRSC11611 | 0.142 | 0.338 | -0.0266 |
| chp | DRSC16925 | 0.938 | -0.688 | – |
| CG17490 | DRSC03797 | -1.21 | -1.17 | – |
| mmd | DRSC19672 | 1.63 | – | – |
| mmd | DRSC19673 | 0.333 | 0.0941 | – |
| mmd | DRSC20161 | -0.0547 | 0.371 | – |
| mmd | DRSC23042 | -0.0412 | -0.0241 | – |
